About 170 (0.05%) of roughly 340,000 compounds were called active. This list was built around the results that the source calls inconclusive (neither active nor inactive); the mix of calls is not that of the screen. Calls follow the shape of the dose curve; as a rule, active = well fitted inhibition curve with a large enough effect in the signal ratio, with a control signal flat (not every such curve was filed as active); inconclusive = small, poorly fitted or top-dose-only effect, or effect the other way, or a change in a side signal; inactive = flat fitted curve, though single readings scatter; the % refers to the signal ratio. Where the call is inconclusive, the potency comes from a doubtful curve fit.
test: qHTS Assay to Find Inhibitors of Chronic Active B-Cell Receptor Signaling; details: ABC-DLBCL IkBa-CBG/CBR reporter, luminescence ratio (green luciferase fused to IkBa over red control in TMD8 lymphoma cells), 4 h; activity change, negative = inhibition: at 46.1 µM (top of the series);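 as to activity change, negative = inhibition: plate controls were basal doxycycline-induced cells for no effect and cells given 10 µM MG132 for full effect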
Outline: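 TMD8 human ABC-DLBCL cells with doxycycline-inducible IκBα–green luciferase fusion and unfused red luciferase, in 0.5% FBS medium; compounds up to 46 uM, 4 h at 37C. Green/red luminescence ratio, filter-overlap corrected, fitted to concentration-response curves.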
Potency is read from the fitted curve at half-maximal effect.

| SMILES | Potency | activity change, negative = inhibition |
| --- | --- | --- |
| N#Cc1c(NC(=O)c2ccccc2)sc2c1CCCCC2 | inconclusive: 11.6 µM [falling, partial curve] | – |
| O=c1[nH]c(N/N=C/c2ccccc2)nc2ccccc12 | inconclusive: 3.66 µM [falling, single point] | – |
| COC(=O)\C(C(C)=O)=C(/C=C/C=C/C=C/N(C)C)N(C)C | – | inactive: 0.5% |
| Cn1c(-c2ccc3ccccc3n2)[n+](C)c2ccccc21 | – | inconclusive: 7.41% |
| CCN(CC)Cc1nc2c(c(=O)[nH]1)C1(CCCC1)Cc1ccccc1-2 | – | inactive: 17.9% |
| O=C(CSC1CCCCC1)N1CCN(c2ccccc2)CC1 | – | inactive: 11.4% |
| CCOC(=O)c1c(NC(=O)C2=C(C)NC(=S)NC2c2ccc(F)cc2F)sc(C)c1C (stereo not given) | – | inactive: 6.63% |
| N#Cc1nc(N2CCCC2)nc(N2CCCC2)n1 | inconclusive: 14.1 µM [falling, partial curve] | – |
| O=C(NC1=NCCS1)c1sc2cc(Cl)cc(Cl)c2c1Cl | – | inconclusive: 9.2% |
| COC(=O)c1ccc(C2c3c(oc4ccc(F)cc4c3=O)C(=O)N2CCO)cc1 (stereo not given) | – | inactive: -1.38% |
| CCOC(=O)c1cnc(SC2CCc3ccccc3C2=O)nc1N (stereo not given) | – | inconclusive: 11.1% |
| Cc1cc(NC(=O)C2CC2)ccc1NC(=O)c1cccs1 | – | inconclusive: 5.89% |
| O=C1CSc2nc3ccccc3n21 | inconclusive: 20 µM [falling, single point] | – |
| Cc1nc2cc(-c3ccccc3)nn2c(C)c1CCC(=O)N1CCN(c2ccccn2)CC1 | inconclusive: 20.6 µM [falling, partial curve] | – |
| Cc1ccc(NC(=O)CSc2nccn(-c3ccc4c(c3)OCCO4)c2=O)cc1 | – | inconclusive: 0.342% |
| CCc1nc(SCC(=O)Nc2ccccc2OC)c2c(C)c(C)sc2n1 | inconclusive: 11.2 µM [rising, partial curve, poor fit] | – |
| COC(=O)c1cccc(Nc2c(-c3ccc(O)c(OC)c3)nc3nc[nH]n23)c1 | – | inconclusive: 0.0246% |
| CCOc1nc(-c2ccccc2)ccc1-c1noc(COC)n1 | – | inconclusive: 14.7% |
| CN(C)CCCN(C(=O)CCS(=O)(=O)c1ccccc1)c1nc2cc3c(cc2s1)OCO3 | inconclusive: 3.16 µM [falling, partial curve] | – |
| CCOC(=O)c1c(NC(=O)c2cc(-c3ccc(Cl)s3)nc3ccccc23)sc(C(N)=O)c1C | – | inconclusive: -5.57% |
| CCC1Nc2ncnc(N3CCN(c4ccccc4)CC3)c2N(Cc2ccc(Br)cc2)C1=O (stereo not given) | – | inactive: -5.96% |
| O=C(Nc1ccc(NC(=O)C2CC2)cc1)c1cccs1 | – | inconclusive: -18.3% |
| COc1cccc(N2C(=O)CC(c3c[nH]c4ccccc34)C2=O)c1 (stereo not given) | inconclusive: 1.84 µM [falling, full curve] | – |
| CCn1ncc([N+](=O)[O-])c1C(=O)N1CCCC1 | – | inconclusive: 1.79% |
| O=C1Nc2c(Br)cc(Br)cc2C1(O)N1CCOCC1 (stereo not given) | inconclusive: 12.6 µM [falling, partial curve] | – |
| CCCCOC(=O)COc1ccc(Cl)cc1Cl | – | inactive: 8.21% |
| Cn1c(=O)c2c(ncn2CC(O)CO)n(C)c1=O (stereo not given) | – | inconclusive: 1.07% |

Fetched by structure from above, two records:

| SMILES | Potency | activity change, negative = inhibition |
| --- | --- | --- |
| COC(=O)c1cccc(Nc2c(-c3ccc(O)c(OC)c3)nc3nc[nH]n23)c1 | – | inconclusive: 0.0246% |
| COC(=O)\C(C(C)=O)=C(/C=C/C=C/C=C/N(C)C)N(C)C | – | inactive: 0.5% |

The list goes on:

| SMILES | Potency | activity change, negative = inhibition |
| --- | --- | --- |
| CC(Oc1ccccc1)C(=O)Nc1oc(-c2ccco2)c(-c2ccco2)c1C#N (stereo not given) | – | inconclusive: 18.8% |
| Cc1cccc(-n2cnc(C(=O)NNC(=S)Nc3ccc(Cl)cc3)c2)n1 | inconclusive: 11.2 µM [rising, partial curve, poor fit] | – |
| COc1ccc(/C=C2\SC(=O)N(CCC(=O)NCCCn3ccnc3)C2=O)cc1 | inconclusive: 15.8 µM [falling, partial curve] | – |
| CCOC(=O)[C@H]1[C@H]2COc3ccc(Cl)cc3[C@@H]2N2C(=O)c3cc(Cl)ccc3NC(=O)[C@@]12C | – | inconclusive: 5.8% |
| COC(=O)c1sc(NC(=O)COc2cccc(C)c2)nc1C | inconclusive: 4.11 µM [falling, partial curve] | – |
| COc1ccc(S(=O)(=O)N2CCN(C(=O)c3ccccn3)CC2)cc1 | inconclusive: 3.66 µM [falling, partial curve, poor fit] | – |
| CCOC(=O)/C(=N\Nc1ccccc1Cl)N1CCN(Cc2ccccc2)CC1 | – | inconclusive: 0.186% |
| Cc1c(-c2nc(N)nc(Nc3ccccc3)n2)oc2ccccc12 | inconclusive: 16.4 µM [falling, single point] | – |
| c1ccc2[nH]c(CSc3ncnc4c3oc3ccccc34)nc2c1 | – | inconclusive: 7.23% |
| CC(=O)c1cccc(NC(=O)NC2CCCc3ccccc32)c1 (stereo not given) | inconclusive: 7.94 µM [falling, partial curve] | – |
| Cc1cc(N2CCC(C)CC2)n2nc(C)c(-c3ccccc3)c2n1 | – | inconclusive: -0.588% |
| COc1cc(C=O)ccc1OCC(=O)N1CCCC1 | – | inconclusive: 14.6% |
| CCC1CCCCN1CCCNC(=O)CS(=O)Cc1nc(-c2ccc(OC)c(OC)c2)oc1C (stereo not given) | – | inconclusive: -10.7% |
| CC(C)C(=O)Nc1ccccc1N1CCN(C(=O)c2ccccc2)CC1 | – | inconclusive: 1.64% |
| COc1ccc(-c2ccc(CNCc3ccccn3)o2)cc1Cl | – | inconclusive: -14.8% |
| O=S(=O)(Cc1cc(-c2ccc(Cl)cc2)no1)c1ccccc1 | – | inconclusive: 9.6% |
| CC(=O)Nc1cccc(C(=O)NCc2ccc3c(c2)CCN3C(=O)c2ccccc2)c1 | – | inconclusive: 15.3% |
| COc1ccc2cc(CCNC(=O)c3ccc(S(=O)(=O)N4CCOCC4)cc3)c(=O)[nH]c2c1 | – | inactive: -1.07% |
| Cn1c(/C=C/c2ccccc2)nc2ccccc21 | inconclusive: 35.5 µM [falling, single point] | – |
| Cn1nnnc1SCCNCc1ccc(Cl)cc1 | – | inactive: 8.41% |
| Nc1ccccc1SC(C[N+](=O)[O-])c1ccccc1 (stereo not given) | – | inconclusive: -9.69% |
| CC(/C=N/NC(=O)c1ccccc1F)c1ccccc1 (stereo not given) | inconclusive: 31.6 µM [falling, partial curve] | – |
| CCC(C)C(=O)N1CCCC(c2nc(-c3cccs3)no2)C1 (stereo not given) | – | inconclusive: 6.67% |
| CN(Cc1ccccc1)C(=O)c1ccc(NC(=O)C2CCCN(C(=O)OC(C)(C)C)C2)cc1 (stereo not given) | – | inconclusive: -6.71% |
| CCOC(=O)C1CCCN(C(=O)/C=C/c2ccc(Cl)cc2)C1 (stereo not given) | – | inactive: -0.801% |
| O=C(/C=C/c1ccccc1)NC(NC(=S)Nc1ccc(Cl)cc1)C(Cl)(Cl)Cl (stereo not given) | – | inconclusive: 18.7% |
| O=C(Nc1ccc(CN2CCOCC2)cc1)c1cc2ccccc2o1 | – | inconclusive: 1% |

| SMILES | Potency | activity change, negative = inhibition |
| --- | --- | --- |
| CCN(CC(=O)Nc1ccccc1OC)C(=O)CN1C(=O)NC(C)(c2ccc(C)cc2)C1=O (stereo not given) | – | inconclusive: 1.26% |
| O=C(Nc1ncccc1O)c1ccc2c(c1)OCCO2 | inconclusive: 18.4 µM [falling, partial curve] | – |
| CN(CC(=O)Nc1c(Cl)cccc1Cl)C(=O)c1sccc1-c1ccccc1 | – | inconclusive: 10.2% |
| COCCN1C(=S)N[C@@H](c2cccc(F)c2)C(C(=O)OC)=C1C | inconclusive: 1.78 µM [falling, full curve, poor fit] | – |
| CCC/S(CC1CC1(Cl)Cl)=N\S(=O)(=O)c1ccc(C)cc1 (stereo not given) | inconclusive: 0.116 µM [rising, partial curve, poor fit] | – |
| C=CCC(C(=O)NC(C)c1ccccc1)C(=O)NC(C)c1ccccc1 (stereo not given) | – | inactive: 3.7% |
| COc1ccc(/C=N\NC(=O)c2ccccc2F)cc1COc1ccc(F)cc1F | inconclusive: 15.8 µM [cytotoxic, partial curve] | – |
| Cc1ccc(Cn2ccsc2=NC(=O)COC(=O)c2ccc(O)cc2O)cc1 | – | inconclusive: -12.5% |
| CCOc1ccc(-c2nc(-c3cccnc3)no2)cc1 | – | inconclusive: -5.56% |
| O=C(NCc1cccnc1)C1CCN(Cc2cc3ccccc3n2Cc2cccc(Cl)c2)CC1 | inconclusive: 35.5 µM [falling, single point] | – |
| COc1ccccc1CO/N=C/c1cccn1-c1nccc(N(C)C)c1C#N | inconclusive: 1.84 µM [falling, full curve] | – |
| Cc1cc2nc(C3CCCN(C(=S)Nc4ccccc4)C3)[nH]c2cc1C (stereo not given) | inconclusive: 2.82 µM [falling, partial curve, poor fit] | – |
| COc1ccc(N/C(N)=N/c2nc(C)cc(C)n2)c(OC)c1 | – | inactive: -1.02% |
| O=C(CC1CCCC1)Nc1ccc(Br)cc1 | – | inactive: 6.8% |
| CC(=O)N(C(C)=O)c1c(C#N)c(C)n(-c2ccccc2)c1C(=O)c1ccccc1 | – | inconclusive: -1.27% |
| O=C(NC1CCCCCCC1)c1cnccn1 | – | inactive: -0.358% |
| Cc1ccccc1NC(NC(=O)OCCn1c([N+](=O)[O-])cnc1C)C(Cl)(Cl)Cl (stereo not given) | – | inactive: 5.59% |
| CCCSc1nnc(NC(=O)CSc2sc3c(O)cc(=O)[nH]c3c2C#N)s1 | – | inactive: 0.477% |
| Cc1ccc(C(=O)N/N=C/c2ccc3c(c2)OCO3)o1 | inconclusive: 4.11 µM [falling, partial curve] | – |
| CN(C)C(=O)N1CCN(C(=O)c2ccccc2Sc2ccccc2C#N)CC1 | – | inconclusive: -2.43% |
| CCCC(C(=O)NC(C)(C)C)N(Cc1ccccc1Cl)C(=O)c1snc(C(N)=O)c1N (stereo not given) | – | inactive: -5.93% |
| CCC1CCCCN1C(=O)COC(=O)CN(C)S(=O)(=O)c1ccc(NC(C)=O)cc1 (stereo not given) | – | inconclusive: 10.7% |
| CCOC(=O)c1sc(NC(=O)CSC(=S)N2CCN(C)CC2)nc1C | inconclusive: 12.6 µM [falling, single point] | – |
| S=c1[nH]nc(-c2ccc(Cl)cc2)n1-c1cccnc1 | – | inactive: 10.4% |
| O=c1cc(NCc2ccco2)c2ccccc2o1 | inconclusive: 7.31 µM [falling, partial curve, poor fit] | – |
| CC(=O)Cc1nsc(NC(=O)c2ccc(-c3ccc(Cl)cc3Cl)o2)n1 | – | inconclusive: -9.92% |

Molecules from the list above with a tert-butyl group, in the order listed:

| SMILES | Potency | activity change, negative = inhibition |
| --- | --- | --- |
| CN(Cc1ccccc1)C(=O)c1ccc(NC(=O)C2CCCN(C(=O)OC(C)(C)C)C2)cc1 (stereo not given) | – | inconclusive: -6.71% |
| CCCC(C(=O)NC(C)(C)C)N(Cc1ccccc1Cl)C(=O)c1snc(C(N)=O)c1N (stereo not given) | – | inactive: -5.93% |

From PubChem BioAssay AID493014 (National Center for Advancing Translational Sciences (NCATS), 2011)
